# Laboratory results: the supplement of paper PMC7125110
# ± gives the standard error. Many entries were measured with a wide error.
# B1: glmS ribozyme (parent)
# chain: AUAAAAGCGCCAGAACUACAGAAAUGUAGUUGACGAGGAGGAGGUUUAUCGAAUUUUCGGCGGAUGCCUCCAAA
# Variants of: B1
# Test: self-cleavage kobs at 2500 uM GlcN6P; higher = faster cleavage; RNA array
# Details: with glucosamine-6-phosphate
# Summary of the method: (§1)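 Tiles bearing barcoded ribozyme variants, transcribed in situ by E. coli RNA polymerase on sequenced MiSeq chips, were imaged over ~14 h at 37 °C using a hybridised Cy3 probe. Glucosamine-6-phosphate was supplied at 40 μM to 10 mM in HEPES/KCl/Mg(OAc)2 buffer. kobs came from one- or two-exponential decay fits to normalised per-tile medians, and weighted Michaelis–Menten fits then provided kcat and KM.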
row,Variant,self-cleavage kobs at 2500 uM GlcN6P [s⁻¹]
1,G60U C61A C67A C70A,3.4e-05 ± 2.4e-05
2,C61A C70U,1.49e-05 ± 1.5e-05
3,C61A U65G C67U,3.59e-05 ± 2.1e-05
4,C61U C67G C68G,0.000152 ± 8.9e-05
5,A64G C70G,4.22e-05 ± 3.2e-05
6,U65C C68U,2e-05 ± 1.5e-05
7,C68U U69A,2.46e-05 ± 1.7e-05

# Variants of: B1
# Test: self-cleavage kobs at 10000 uM GlcN6P; higher = faster cleavage; RNA array
# Details: with glucosamine-6-phosphate
# Summary of the method: as §1
row,Variant,self-cleavage kobs at 10000 uM GlcN6P [s⁻¹]
1,C61U C67G C68G,2.34e-05 ± 1.5e-05
2,U65C C68U,2.09e-05 ± 1.1e-05
3,A6G U46C,1.78e-05 ± 1.8e-05
4,A6U A39C,2.37e-05 ± 1.2e-05
5,G7A C8U A53C U55A U69A,3.13e-05 ± 2.1e-05
6,G7A C16U U54C,2.21e-05 ± 2e-05
7,G9A C58G C67G,4.53e-05 ± 3.2e-05
8,G9A U55G,1.33e-05 ± 9.6e-06
9,C10A A12G C16U C68U U69G,3.44e-05 ± 2.5e-05
10,C10A C50G U65G,2.4e-05 ± 1.8e-05
11,C10A C68U,0.000314 ± 0.00028
12,C10A G29C U55A C70G,2e-05 ± 1.9e-05
13,C10G A12U A64G,2.09e-05 ± 1.2e-05
14,C10G G32U C58A C70G,2.69e-05 ± 1.8e-05
15,C10G G35U C67U C70A,0.000525 ± 0.00027
16,C10U A15G,1.73e-05 ± 1.1e-05
17,C10U A15G G32A G63U U69G,2.42e-05 ± 2e-05
18,C10U C16U,1.16e-05 ± 8.8e-06
19,C10U U31A,1.81e-05 ± 1.6e-05
20,C10U U54C,1.78e-05 ± 1.3e-05
21,C11A C58A,1.71e-05 ± 1.2e-05

row,Variant,self-cleavage kobs at 10000 uM GlcN6P [s⁻¹]
1,C11A G37A G59A,2.43e-05 ± 2e-05
2,C11A U30C C67G,2.67e-05 ± 2.2e-05
3,C11G G29A U49G U69G,3.55e-05 ± 2e-05
4,C11U A15G C50G,3.01e-05 ± 1.7e-05
5,A12C A14C G66C,3.38e-05 ± 2.3e-05
6,A12G A48C,1.59e-05 ± 1.6e-05
7,A12G C16G A53U C71A,2.69e-05 ± 2.1e-05
8,A12G U54C U69G,2.65e-05 ± 1.6e-05
9,A12U G13A G29A U45G,2.47e-05 ± 2.4e-05
10,A12U G44C C68U,1.57e-05 ± 1.3e-05
11,A14C C16G A53U,1.77e-05 ± 1.4e-05
12,A14C C50G A64G,2.13e-05 ± 1.8e-05
13,A14C G29U C50G,2.64e-05 ± 2.3e-05
14,A14U A39C C67G,2.76e-05 ± 1.6e-05
15,A15C C50G G62U,2.49e-05 ± 1.8e-05
16,A15G U30G G44U,2.58e-05 ± 1.5e-05
17,A15U G35U C67G,2.38e-05 ± 2.2e-05
18,A15U G35U G51U U54A U69G,4.25e-05 ± 2.4e-05
19,C16G C34G G60U C61G U65A C67G,2.78e-05 ± 1.6e-05
20,C16G G29C G44C,3.12e-05 ± 1.6e-05
21,C16G G44A U54A,3.01e-05 ± 2e-05

# Already shown: entries from further up.
row,Variant,self-cleavage kobs at 10000 uM GlcN6P [s⁻¹]
14,A14U A39C C67G,2.76e-05 ± 1.6e-05
15,A15C C50G G62U,2.49e-05 ± 1.8e-05
16,A15G U30G G44U,2.58e-05 ± 1.5e-05
17,A15U G35U C67G,2.38e-05 ± 2.2e-05

# Remaining list, next part

row,Variant,self-cleavage kobs at 10000 uM GlcN6P [s⁻¹]
1,C16U A53G U56G,0.0403 ± 0.023
2,C16U C50U C71U,3.39e-05 ± 1.8e-05
3,A24U,0.059 ± 0.045
4,U30A G44U,2.55e-05 ± 1.7e-05
5,U30C C67A C70G,2.58e-05 ± 2.2e-05
6,U30C G32C G35C C50G G62U,3.05e-05 ± 2.2e-05
7,U30C U65A,1.99e-05 ± 1.2e-05
8,U30G A42U U56A,2.89e-05 ± 2.5e-05
9,U31A C68A,2.09e-05 ± 1.3e-05
10,U31C G59A,1.39e-05 ± 1e-05
11,G32A A42U,2.08e-05 ± 1.6e-05
12,G32A A52U,1.82e-05 ± 1.1e-05
13,G32A A53U U65C,2.99e-05 ± 1.7e-05
14,G32A U65C,2.43e-05 ± 1.6e-05
15,G32C A33U A48U U69G,3.22e-05 ± 2.3e-05
16,A33C A42G U65A,3.04e-05 ± 2.4e-05
17,A33C U55G C58U C68A,2.11e-05 ± 2.1e-05
18,A33U A36C C58G U69C,2.97e-05 ± 1.8e-05
19,C34A C68G,0.000599 ± 0.00047
20,C34U U69A,0.000557 ± 0.00052
21,G35A C61G U65G C67A U69G,2.95e-05 ± 1.9e-05

row,Variant,self-cleavage kobs at 10000 uM GlcN6P [s⁻¹]
1,G35A C68G,6.98e-05 ± 5.6e-05
2,A36C C67A C68G,3.14e-05 ± 1.9e-05
3,G37A G41A U46G,2.69e-05 ± 2.3e-05
4,G37C C68U,1.51e-05 ± 8.3e-06
5,G38U U65G C67U C70U,2.3e-05 ± 1.8e-05
6,A39G A42G,0.0448 ± 0.027
7,G40A U55C A64G,2.77e-05 ± 1.6e-05
8,A42C C68U,1.07e-05 ± 7.2e-06
9,G43A U46A,1.73e-05 ± 1.7e-05
10,G43U U56G,1.46e-05 ± 1.2e-05
11,G44A C70U,1.14e-05 ± 1.1e-05
12,U45A C50A,1.45e-05 ± 9.7e-06
13,U46C U49G C67G,3.38e-05 ± 2e-05
14,U46G A52U A64G,3.76e-05 ± 1.9e-05
15,U46G C50U,2e-05 ± 1.3e-05
16,U46G C67U C68G,3.91e-05 ± 2.2e-05
17,U46G G51U U57A C70G,2.5e-05 ± 1.9e-05
18,U46G U57C,2.26e-05 ± 1.5e-05
